# According to PubChem BioAssay AID504467 (National Center for Advancing Translational Sciences (NCATS), 2011):
# Among all 330,000 compounds or so, about 7,700 (2.3%) were called active. This list was built around the results that the source calls inconclusive (neither active nor inactive); the mix of calls is not that of the screen. Calls come from the whole dose curve; as a rule, active = well fitted inhibition curve with a large enough effect; inconclusive = small, poorly fitted or top-dose-only effect, or effect the other way; inactive = flat fitted curve, though single readings scatter. A potency beside an inconclusive call is a rough fit, not a confirmed value.
# Experiment: qHTS screen for small molecules that inhibit ELG1-dependent DNA repair in human embryonic kidney (HEK293T) cells expressing luciferase-tagged ELG1; note: nearly all actives have a fitted effect of over 55% in size
# Conditions: HEK293T ELG1-luciferase reporter, luminescence, 16 h, DNA damage induced by 5-fluorouridine; series mostly up to 46.1 µM
# Method in brief: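 DMSO vehicle served as the neutral condition. Each well held 2,000 cells given 5-fluorouridine plus compound; after 16 hr at 37 °C/5% CO2, ONE-Glo was added and luciferase measured 30 min later.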
# Potency is the fitted concentration of half-maximal effect.
row,Compound,Potency
1,Cc1cc(C)c(S(=O)(=O)Nc2ccc3c4c(cccc24)CC3)c(C)c1,"inconclusive: 0.517 µM [inhibitor, full curve, poor fit]"
2,Cc1c(C)n(Cc2ccc(Cl)cc2)c2ccc(C(=O)NCCN3CCOCC3)cc12,"inconclusive: 32.6 µM [inhibitor, single point]"
3,COc1ccc(Cl)cc1NS(=O)(=O)c1cccc(C(=O)NC2CC2)c1,inactive
4,CC1CC(C)CN(S(=O)(=O)c2ccc(NC(=O)c3ccc(=O)[nH]c3)cc2)C1 (stereo not given),inactive
5,COc1cc(-c2n[nH]c(=S)n2-c2ccccc2C(F)(F)F)cc(OC)c1OC,"inconclusive: 20.6 µM [activator, partial curve]"
6,COCc1c(C(=O)N/N=C/c2ccc(C)o2)nnn1-c1nonc1N,inactive
7,CCn1cc(/C=C/C(=O)Nc2ccc(C)cc2Br)cn1,"inconclusive: 20.6 µM [activator, partial curve]"
8,O=C(COC(=O)c1ccc2c(c1)OCO2)NC1CCCCC1,"inconclusive: 20.6 µM [activator, partial curve, poor fit]"
9,Cc1nc(N2CCC(C)CC2)c2c(C)c(C(=O)Nc3ccc4c(c3)OCCO4)sc2n1,active: 10.3 µM
10,Cc1cccc(NC(=S)N2CCC(C(N)=O)(N3CCCCC3)CC2)c1C,inactive
11,CCc1ccccc1NNC(=O)c1cc(C)on1,inactive
12,Cn1c(=O)[nH]c(=O)c2c1nc(N1CCCCCC1)n2CCCSc1nnnn1-c1ccccc1,"inconclusive: 25.9 µM [inhibitor, single point]"
13,Cc1ncc(CO)c(/C=N/Nc2ccc(C(F)(F)F)cn2)c1O,"inconclusive: 4.61 µM [inhibitor, partial curve]"
14,Cc1ccc(Oc2c(CO)c(-c3ccccc3)nn2C)cc1,"inconclusive: 16.4 µM [inhibitor, single point]"
15,Cc1ccc([N+](=O)[O-])cc1NC(=O)CNC1CCCCC1,inactive
16,CN1CCN(c2ccc(Cl)cc2NC(=O)C2COc3ccccc3O2)CC1 (stereo not given),"inconclusive: 18.4 µM [inhibitor, single point]"
17,Cc1ccc(C)c(N2CCN(C(=O)CCc3nc(-c4cccc(C(F)(F)F)c4)no3)CC2)c1,"inconclusive: 14.6 µM [activator, partial curve]"
18,CCOC(=O)c1ccccc1-n1nnnc1C,"inconclusive: 29.1 µM [activator, partial curve, poor fit]"
19,Cc1nc2cc(NC(=O)NCc3ccccc3)ccc2o1,"inconclusive: 16.4 µM [activator, partial curve]"
20,CCN(CC)CCNC(=O)Cc1c(C(=O)O)n(CC)c2ccccc12,"inconclusive: 2.59 µM [activator, full curve, poor fit]"
21,NS(=O)(=O)c1ccc(CCNC(=O)CCCC2=NS(=O)(=O)c3ccccc3N2)cc1,inactive
22,CCNC(=O)CCc1nc(-c2ccc(C(C)(C)C)cc2)no1,"inconclusive: 10.3 µM [activator, partial curve, poor fit]"
23,OCCN1CCN(Cc2nc(-c3cccc(Cl)c3)no2)CC1,"inconclusive: 18.3 µM [activator, single point]"
24,CCCc1ccc2oc(C(=O)N(C)Cc3nccs3)c(C)c2c1,"inconclusive: 10.3 µM [activator, partial curve]"

# Quoted at random: 2 compounds from above, in no set order.
row,Compound,Potency
2,Cc1c(C)n(Cc2ccc(Cl)cc2)c2ccc(C(=O)NCCN3CCOCC3)cc12,"inconclusive: 32.6 µM [inhibitor, single point]"
15,Cc1ccc([N+](=O)[O-])cc1NC(=O)CNC1CCCCC1,inactive

# Single values from above:
# Under Potency, CCCc1ccc2oc(C(=O)N(C)Cc3nccs3)c(C)c2c1 reads inconclusive: 10.3 µM [activator, partial curve]
# Under Potency, Cc1ncc(CO)c(/C=N/Nc2ccc(C(F)(F)F)cn2)c1O reads inconclusive: 4.61 µM [inhibitor, partial curve]
# Under Potency, Cc1ccc([N+](=O)[O-])cc1NC(=O)CNC1CCCCC1 reads inactive

# Continuation:

row,Compound,Potency
1,O=C(Cc1c(F)cccc1Cl)NNC(=O)c1ccccc1Cl,inactive
2,CCOc1ccc(S(=O)(=O)N2CCCC(C(=O)NC3CC3)C2)cc1Cl (stereo not given),inactive
3,CN(c1ccccc1)S(=O)(=O)c1cccc(NC(=O)C2CC(=O)N(Cc3ccccc3)C2)c1 (stereo not given),"inconclusive: 23.1 µM [inhibitor, single point]"
4,COc1cc(NC(=O)CCC(=O)Nc2ccc3nc(N4CCOCC4)cc(C)c3c2)cc(OC)c1OC,"inconclusive: 11.6 µM [inhibitor, partial curve, poor fit]"
5,COc1ccc(N2CCN(CCCNC(=O)c3ccc(CS(=O)(=O)c4ccc(OC)cc4)o3)CC2)cc1,"inconclusive: 20.6 µM [inhibitor, single point]"
6,COc1ccc(S(=O)(=O)N2CCC(C(=O)N3CCCCC3)CC2)cc1Cl,"inconclusive: 25.9 µM [inhibitor, partial curve, poor fit]"
7,Cc1nc(-c2ccc(Cl)cc2)sc1C(=O)NNC(=O)C(C)C,inactive
8,Cc1cccc(NC(=S)NCc2ccc3c(c2)OCO3)c1,inactive
9,C/C(=N/OC(=O)c1ccccc1)c1oc(C)nc1C,"inconclusive: 4.11 µM [activator, single point]"
10,COc1ccc(N2C(=O)CC(Sc3nc4ccccc4s3)C2=O)cc1 (stereo not given),inactive
11,O=C(CSc1nncc2ccccc12)Nc1ccc(F)cc1,inactive
12,COc1ccccc1NC(=O)CCC(=O)Nc1cc(OC)c(NC(=O)c2cccs2)cc1OC,"inconclusive: 16.4 µM [inhibitor, single point]"
13,Fc1ccccc1/C=N/n1c(COc2ccccc2)n[nH]c1=S,inactive
14,Cc1ccccc1-c1ccc(/C=C2/SC(N3CCOCC3)=NC2=O)o1,active: 8.2 µM
15,COc1ccc2oc(=O)c(C(=O)Nc3ccccc3O)cc2c1,"inconclusive: 0.92 µM [activator, partial curve]"
16,CCCCSC1(SCCCC)N=C(N)C2(C#N)C(c3ccccc3)NC(C)=C(C)C12C#N (stereo not given),inactive
17,CCOC(=O)C1CCCN(C(=O)Cn2cnc3c2c(=O)n(C)c(=O)n3C)C1 (stereo not given),inactive
18,O=C(O)c1cccc(N/N=C(\N=Nc2ccccc2)c2ccccc2)c1,"inconclusive: 15.8 µM [activator, single point]"
19,CC1Cc2cc(/C(O)=C3/C(=O)C(=O)N(Cc4ccncc4)C3c3ccc(N(C)C)cc3)ccc2O1 (stereo not given),inactive
20,O=C1c2cccc3cccc(c23)C(=O)N1c1nccs1,"inconclusive: 13 µM [activator, partial curve, poor fit]"
21,COc1ccc2[nH]c(=O)c(CN(C(=O)C3CCCO3)c3cccc(C)c3)cc2c1 (stereo not given),"inconclusive: 14.6 µM [activator, partial curve, poor fit]"
22,COc1ccc(N2CCN(C(=O)CCCC(=O)c3ccccc3)CC2)cc1,inactive
23,O=C1C=C(NCCN2CCOCC2)C(=O)c2cnccc21,active: 4.11 µM
24,NNC(=O)c1oc2nc(-c3ccc(Cl)cc3)cc(-c3ccccc3)c2c1N,active: 16.4 µM

row,Compound,Potency
1,O=C1CN(C(=O)c2c(F)cccc2F)C(c2ccc(F)cc2)c2cc(F)ccc2N1 (stereo not given),"inconclusive: 29.1 µM [inhibitor, single point]"
2,Cc1cc(C(=O)COC(=O)c2ccccc2NCCO)c(C)n1CC1CCCO1 (stereo not given),"inconclusive: 4.11 µM [activator, full curve]"
3,Cc1ccc2oc(Nc3nc(C)c(C)c(C)n3)nc2c1,"inconclusive: 5.8 µM [activator, full curve]"
4,C=COCCCNc1ncnc2sc(-c3ccccc3)cc12,"inconclusive: 16.4 µM [inhibitor, single point]"
5,Cc1ccc(C(=O)OC(C)C(=O)NCc2ccc3c(c2)OCO3)cc1S(=O)(=O)N1CCOCC1 (stereo not given),"inconclusive: 14.6 µM [inhibitor, partial curve, poor fit]"
6,COC(=O)c1cc(=O)n(-c2ccccc2)c(=Nc2ccccc2)s1,"inconclusive: 18.4 µM [inhibitor, partial curve, poor fit]"
7,CCC(c1nnc(SCC(=O)Nc2cc(C)on2)o1)N(C)C (stereo not given),"inconclusive: 25.9 µM [activator, partial curve, poor fit]"
8,CC1Cc2ccccc2N1C(=O)c1ccc(N2CCCC2)c([N+](=O)[O-])c1 (stereo not given),"inconclusive: 23.1 µM [inhibitor, partial curve, poor fit]"
9,O=C(CNc1cccc(S(=O)(=O)N2CCOCC2)c1)Nc1ccc(C(F)(F)F)cc1,"inconclusive: 20.6 µM [inhibitor, single point]"
10,N#Cc1cc2c(nc1SCc1ccccc1)CCC2,"inconclusive: 16.4 µM [activator, partial curve, poor fit]"
11,O=C(NCC(O)COc1ccc([N+](=O)[O-])cc1)Nc1ccccc1 (stereo not given),"inconclusive: 18.3 µM [activator, partial curve, poor fit]"
12,Cc1cccc(Nc2nnc(SCC(=O)NC3CCCc4ccccc43)s2)c1C (stereo not given),"inconclusive: 29.1 µM [inhibitor, single point]"
13,COc1ccc(-c2cc(C(=O)OC(C)C(=O)Nc3c(C)n(C)n(-c4ccccc4)c3=O)c3ccccc3n2)cc1 (stereo not given),active: 14.6 µM
14,Cc1cc(C)c(C)c(S(=O)(=O)N2CCN(C(=O)CCc3nc4ccccc4c(=O)[nH]3)CC2)c1C,"inconclusive: 18.3 µM [inhibitor, single point]"
15,Cc1ccc([N+](=O)[O-])c(OCCN2CCC(Cc3ccccc3)CC2)c1,inactive
16,CCCOc1cccc(C2C(C(=O)c3ccc(C)o3)=C(O)C(=O)N2CCN2CCOCC2)c1 (stereo not given),inactive
17,CC(C)c1ccc(OC(=O)c2cccc(S(=O)(=O)N3CCN(C)CC3)c2)cc1,inactive
18,CCOC(=O)CC(=O)CSc1nc2c(c(C)c1C#N)CCC2,inactive
19,Cc1sc(NC(=O)CSc2nc(O)cc(=O)[nH]2)nc1-c1ccccc1,inactive
20,COC(=O)[C@@H]1Cc2c([nH]c3ccccc23)C(C)N1C(=O)c1ccccc1 (stereo not given in full),active: 11.6 µM
21,Cc1cccc(C)c1OCC(O)CNS(=O)(=O)c1ccccc1C(=O)N1CCOCC1 (stereo not given),"inconclusive: 29.1 µM [inhibitor, single point]"
22,CC(C)(C)c1ccccc1NC(=O)C1=COCCO1,"inconclusive: 29.1 µM [activator, single point]"
